From publication PMC9800739, “Epigenetic drugs in somatostatin type 2 receptor radionuclide theranostics and radiation transcriptomics in mouse pheochromocytoma models” (Theranostics, 2023)

System: MPC and MTT cells
Assay: Viability assay (colorimetric tetrazolium dye)
Assay type: cell-based, mouse
Conditions: both cell lines

| SMILES | hill slope of dose-response curve (viability) |
| --- | --- |
| Nc1ncn([C@H]2C[C@H](O)[C@@H](CO)O2)c(=O)n1 [DAC, 5-Aza-2'-deoxycytidine] | -0.4 ± 0.02 |
| CCCC(CCC)C(=O)O [VPA, valproic acid] | -1.2 ± 0.3 |
